In the supplement of paper PMC10849652:
The list shows a part of the results.

Protein sequences, listed by entry. Tags and fused reporters are not part of them. Lines headed by an entry give the natural chain unless they say otherwise; changes in a name come on top.
UniProt Q53S58: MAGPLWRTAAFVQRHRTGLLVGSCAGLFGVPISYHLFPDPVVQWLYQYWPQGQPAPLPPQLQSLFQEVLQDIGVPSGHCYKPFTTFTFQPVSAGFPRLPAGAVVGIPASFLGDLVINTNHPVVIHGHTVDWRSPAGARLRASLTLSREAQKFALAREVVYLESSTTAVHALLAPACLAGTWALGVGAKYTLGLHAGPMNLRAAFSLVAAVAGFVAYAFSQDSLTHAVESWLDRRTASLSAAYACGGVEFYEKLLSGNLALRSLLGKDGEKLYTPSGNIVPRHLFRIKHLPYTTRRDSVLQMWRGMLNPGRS
UniProt Q96I45: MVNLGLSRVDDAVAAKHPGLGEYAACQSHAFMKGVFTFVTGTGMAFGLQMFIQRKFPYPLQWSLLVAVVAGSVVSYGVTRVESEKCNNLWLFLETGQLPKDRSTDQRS
UniProt Q9NUM4, whole entry, looked up: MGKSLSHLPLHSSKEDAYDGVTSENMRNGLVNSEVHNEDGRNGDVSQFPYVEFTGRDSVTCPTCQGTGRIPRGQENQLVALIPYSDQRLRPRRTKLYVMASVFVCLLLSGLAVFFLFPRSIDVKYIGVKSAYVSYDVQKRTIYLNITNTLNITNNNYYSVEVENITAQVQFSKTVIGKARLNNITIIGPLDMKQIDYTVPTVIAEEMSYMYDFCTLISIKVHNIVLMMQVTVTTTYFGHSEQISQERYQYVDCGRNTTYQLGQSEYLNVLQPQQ
UniProt Q8TDI8: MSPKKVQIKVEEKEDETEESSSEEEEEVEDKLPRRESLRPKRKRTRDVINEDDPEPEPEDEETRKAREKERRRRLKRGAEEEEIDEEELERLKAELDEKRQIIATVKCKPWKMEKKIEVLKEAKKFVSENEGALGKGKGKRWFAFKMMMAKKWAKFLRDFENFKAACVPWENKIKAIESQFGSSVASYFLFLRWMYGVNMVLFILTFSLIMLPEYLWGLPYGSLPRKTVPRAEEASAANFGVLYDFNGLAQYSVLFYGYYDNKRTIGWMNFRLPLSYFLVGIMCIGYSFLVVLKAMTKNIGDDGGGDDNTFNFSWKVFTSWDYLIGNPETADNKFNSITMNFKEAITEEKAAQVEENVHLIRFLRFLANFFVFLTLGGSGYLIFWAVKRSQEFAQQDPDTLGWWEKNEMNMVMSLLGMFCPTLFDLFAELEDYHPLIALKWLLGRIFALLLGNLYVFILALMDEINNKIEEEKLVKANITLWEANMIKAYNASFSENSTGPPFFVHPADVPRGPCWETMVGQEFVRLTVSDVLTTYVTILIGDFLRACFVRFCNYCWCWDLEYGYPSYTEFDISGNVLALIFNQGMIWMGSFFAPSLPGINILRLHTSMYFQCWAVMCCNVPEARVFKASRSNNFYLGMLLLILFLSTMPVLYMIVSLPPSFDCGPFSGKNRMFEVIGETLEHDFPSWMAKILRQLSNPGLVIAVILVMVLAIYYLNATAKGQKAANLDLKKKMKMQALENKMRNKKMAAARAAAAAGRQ
UniProt Q9Y3Q3: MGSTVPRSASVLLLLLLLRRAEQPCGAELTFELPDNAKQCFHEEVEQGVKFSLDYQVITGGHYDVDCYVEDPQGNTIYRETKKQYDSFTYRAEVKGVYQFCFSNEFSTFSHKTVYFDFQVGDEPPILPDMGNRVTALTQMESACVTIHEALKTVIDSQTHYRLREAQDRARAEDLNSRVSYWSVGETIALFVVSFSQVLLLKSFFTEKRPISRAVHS
UniProt Q9NWH2: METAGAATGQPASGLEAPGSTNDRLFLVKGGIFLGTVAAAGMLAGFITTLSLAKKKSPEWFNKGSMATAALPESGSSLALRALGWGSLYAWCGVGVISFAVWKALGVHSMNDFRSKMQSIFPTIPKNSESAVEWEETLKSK
UniProt Q969X1: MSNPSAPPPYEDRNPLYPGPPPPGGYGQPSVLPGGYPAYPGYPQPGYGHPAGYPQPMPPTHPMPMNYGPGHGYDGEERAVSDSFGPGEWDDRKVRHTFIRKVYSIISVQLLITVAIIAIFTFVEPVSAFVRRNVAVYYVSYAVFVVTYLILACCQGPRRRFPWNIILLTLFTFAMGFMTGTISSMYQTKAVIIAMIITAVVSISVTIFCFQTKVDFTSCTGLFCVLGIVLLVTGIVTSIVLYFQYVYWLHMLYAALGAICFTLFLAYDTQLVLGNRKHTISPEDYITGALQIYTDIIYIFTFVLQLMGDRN
UniProt P55061, whole entry, looked up: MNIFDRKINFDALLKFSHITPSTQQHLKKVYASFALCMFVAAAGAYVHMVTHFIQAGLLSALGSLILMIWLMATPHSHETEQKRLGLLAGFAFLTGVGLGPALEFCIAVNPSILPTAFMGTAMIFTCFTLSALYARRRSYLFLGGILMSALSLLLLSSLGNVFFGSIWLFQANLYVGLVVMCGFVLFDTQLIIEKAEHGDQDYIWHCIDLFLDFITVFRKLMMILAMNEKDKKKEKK
UniProt O95379: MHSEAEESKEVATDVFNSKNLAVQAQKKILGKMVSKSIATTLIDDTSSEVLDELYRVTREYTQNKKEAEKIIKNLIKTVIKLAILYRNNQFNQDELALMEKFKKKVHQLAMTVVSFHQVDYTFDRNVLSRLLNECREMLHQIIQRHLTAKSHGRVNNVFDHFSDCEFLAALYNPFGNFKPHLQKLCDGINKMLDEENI
UniProt Q6UWJ1: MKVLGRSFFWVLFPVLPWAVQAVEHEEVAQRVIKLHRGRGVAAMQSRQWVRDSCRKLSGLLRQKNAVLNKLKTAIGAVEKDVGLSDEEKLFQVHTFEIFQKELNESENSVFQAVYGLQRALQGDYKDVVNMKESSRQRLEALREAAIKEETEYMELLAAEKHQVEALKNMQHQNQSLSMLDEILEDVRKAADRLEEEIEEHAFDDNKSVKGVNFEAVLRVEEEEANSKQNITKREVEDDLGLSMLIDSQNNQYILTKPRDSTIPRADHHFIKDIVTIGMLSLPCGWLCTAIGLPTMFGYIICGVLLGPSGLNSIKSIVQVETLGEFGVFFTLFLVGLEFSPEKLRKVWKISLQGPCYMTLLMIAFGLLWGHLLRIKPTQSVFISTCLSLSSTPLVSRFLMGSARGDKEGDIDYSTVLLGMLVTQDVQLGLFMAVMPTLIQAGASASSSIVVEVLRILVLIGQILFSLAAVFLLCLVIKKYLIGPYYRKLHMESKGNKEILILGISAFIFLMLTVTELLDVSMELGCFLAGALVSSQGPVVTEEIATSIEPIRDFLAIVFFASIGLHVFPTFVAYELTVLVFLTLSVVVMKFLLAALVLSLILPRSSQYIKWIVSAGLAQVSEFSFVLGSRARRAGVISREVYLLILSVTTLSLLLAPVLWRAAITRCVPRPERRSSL
UniProt O14763, whole entry, looked up: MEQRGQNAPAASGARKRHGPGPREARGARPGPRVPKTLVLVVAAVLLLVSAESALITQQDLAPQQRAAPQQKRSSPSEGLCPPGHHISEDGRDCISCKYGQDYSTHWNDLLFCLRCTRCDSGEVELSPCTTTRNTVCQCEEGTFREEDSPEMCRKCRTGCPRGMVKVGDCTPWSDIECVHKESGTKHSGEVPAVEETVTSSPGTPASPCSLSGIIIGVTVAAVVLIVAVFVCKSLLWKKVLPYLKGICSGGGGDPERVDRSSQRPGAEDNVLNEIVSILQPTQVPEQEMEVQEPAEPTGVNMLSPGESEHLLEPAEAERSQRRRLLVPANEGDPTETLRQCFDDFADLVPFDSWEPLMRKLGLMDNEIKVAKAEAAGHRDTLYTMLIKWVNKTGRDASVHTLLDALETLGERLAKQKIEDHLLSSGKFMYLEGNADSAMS
UniProt Q9BVX2: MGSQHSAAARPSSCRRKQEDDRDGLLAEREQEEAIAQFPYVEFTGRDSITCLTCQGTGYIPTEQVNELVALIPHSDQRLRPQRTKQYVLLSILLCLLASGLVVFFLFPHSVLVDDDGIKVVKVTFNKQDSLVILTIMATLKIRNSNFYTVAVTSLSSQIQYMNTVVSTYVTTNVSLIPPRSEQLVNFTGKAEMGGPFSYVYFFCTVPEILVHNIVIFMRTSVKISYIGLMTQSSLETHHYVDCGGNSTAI
UniProt Q96HV5: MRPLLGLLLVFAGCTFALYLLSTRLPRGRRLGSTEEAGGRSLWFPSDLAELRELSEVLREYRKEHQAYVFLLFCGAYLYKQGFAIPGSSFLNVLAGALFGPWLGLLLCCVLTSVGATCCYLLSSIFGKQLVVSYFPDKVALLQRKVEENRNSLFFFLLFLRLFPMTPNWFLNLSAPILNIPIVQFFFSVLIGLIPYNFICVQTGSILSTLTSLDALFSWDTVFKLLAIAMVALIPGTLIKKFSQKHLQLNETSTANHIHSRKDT
UniProt O76062: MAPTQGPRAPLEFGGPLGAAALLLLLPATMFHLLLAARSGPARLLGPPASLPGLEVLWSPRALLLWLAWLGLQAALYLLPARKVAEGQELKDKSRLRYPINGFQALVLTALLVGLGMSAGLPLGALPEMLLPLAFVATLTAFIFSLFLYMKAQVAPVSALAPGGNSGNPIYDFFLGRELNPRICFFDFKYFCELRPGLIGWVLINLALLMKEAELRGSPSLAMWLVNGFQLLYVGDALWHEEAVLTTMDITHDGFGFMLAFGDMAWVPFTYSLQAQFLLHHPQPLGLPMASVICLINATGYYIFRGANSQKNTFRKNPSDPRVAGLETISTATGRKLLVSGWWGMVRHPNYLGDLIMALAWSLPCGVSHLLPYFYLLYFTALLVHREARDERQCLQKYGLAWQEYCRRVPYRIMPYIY
UniProt Q9BTX3: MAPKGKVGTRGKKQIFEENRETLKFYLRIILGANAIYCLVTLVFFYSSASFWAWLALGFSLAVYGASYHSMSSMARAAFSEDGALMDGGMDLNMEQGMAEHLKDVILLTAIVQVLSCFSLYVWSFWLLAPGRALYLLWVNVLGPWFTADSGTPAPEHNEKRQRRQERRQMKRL
UniProt Q8N131: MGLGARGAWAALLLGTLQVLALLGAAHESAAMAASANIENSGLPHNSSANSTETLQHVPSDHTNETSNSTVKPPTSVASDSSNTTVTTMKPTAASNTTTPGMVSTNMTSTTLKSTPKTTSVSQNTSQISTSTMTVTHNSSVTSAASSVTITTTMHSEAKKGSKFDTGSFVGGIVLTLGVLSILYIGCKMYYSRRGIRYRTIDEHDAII
UniProt Q9HCN3: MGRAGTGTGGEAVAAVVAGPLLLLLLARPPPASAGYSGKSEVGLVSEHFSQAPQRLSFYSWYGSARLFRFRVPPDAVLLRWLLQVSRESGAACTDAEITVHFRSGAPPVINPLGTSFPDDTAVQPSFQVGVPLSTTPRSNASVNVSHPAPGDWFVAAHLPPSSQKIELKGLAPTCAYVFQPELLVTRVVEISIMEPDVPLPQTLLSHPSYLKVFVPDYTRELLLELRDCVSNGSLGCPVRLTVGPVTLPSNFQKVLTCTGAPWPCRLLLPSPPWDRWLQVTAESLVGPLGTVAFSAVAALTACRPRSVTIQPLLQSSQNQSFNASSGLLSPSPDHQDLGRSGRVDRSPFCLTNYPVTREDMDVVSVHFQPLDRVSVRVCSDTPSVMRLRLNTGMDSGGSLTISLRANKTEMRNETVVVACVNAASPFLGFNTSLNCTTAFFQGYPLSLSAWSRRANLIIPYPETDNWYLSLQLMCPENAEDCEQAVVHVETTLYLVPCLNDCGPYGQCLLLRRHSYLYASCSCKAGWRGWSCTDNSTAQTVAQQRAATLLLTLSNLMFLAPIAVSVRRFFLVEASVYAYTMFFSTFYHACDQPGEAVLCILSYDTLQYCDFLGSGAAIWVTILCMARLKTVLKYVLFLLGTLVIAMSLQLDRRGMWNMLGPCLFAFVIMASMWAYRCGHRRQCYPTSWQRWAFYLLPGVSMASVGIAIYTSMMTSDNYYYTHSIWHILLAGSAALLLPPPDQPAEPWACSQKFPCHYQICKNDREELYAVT

Tests used:
Assay in all cases: log2 fold change, soluble protein after heating vs DMSO (PISA); higher = thermal stabilisation; K562 cells, 10 uM, 30 min; active = over 0.2 and 3.5 SD of the protein, either way, in both replicates (recomputed)
[1] = compound: CC1=C(C=C(C=C1)NC(=O)C2=CC(=CC=C2)C(C)(C)C#N)NC3=CC4=C(C=C3)N=CN(C4=O)C
Summary of the method: (§1)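 K562 cells at 2×10^6 cells/mL were exposed to 10 μM compound for 30 min, then aliquots were heated for 3 min across 48°C-58°C, pooled, and extracted in PBS containing 0.5% NP-40 at 4°C. The supernatant after 21,000xg for 90 min was taken as soluble protein and measured by TMTpro 16plex LC-MS/MS with channel sums equalised. Thermal stability is reported relative to control samples, with values from duplicates. Fold changes are given on a log2 scale.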

[2] = compound: CC1=C(C=C(C=C1)NC(=O)C2=CC(=CC=C2)N(C)C)NC(=O)C3=CC=C(C=C3)O
Summary of the method: as §1

[3] = compound: CC1=CC=C(C=C1)SC2=C3C=C(SC3=CN=C2)C(=O)N
Summary of the method: as §1

[4] = compound: CC1=NC(=CC=C1)C2=C(N=C(N2)C(C)(C)C)C3=CC4=NC=CN=C4C=C3
Summary of the method: as §1

[5] = compound: CCCCN(Cc1ccc(C(=O)NO)cc1)C(=O)Nc1ccccc1 [Nexturastat A]
Summary of the method: as §1

[6] = compound: CCCS(=O)(=O)Nc1ccc(F)c(C(=O)c2c[nH]c3ncc(-c4ccc(Cl)cc4)cc23)c1F [vemurafenib]
Summary of the method: as §1

[7] = compound: CCCS(=O)(=O)Nc1ccc(F)c(C(=O)c2c[nH]c3ncc(Cl)cc23)c1F
Summary of the method: as §1

[8] = compound: CCCc1cc(C)[nH]c(=O)c1CNC(=O)c1cc(-c2ccnc(N3CCN(C)CC3)c2)cc2c1cnn2C(C)C
Summary of the method: as §1

[9] = compound: CCN(CC)Cc1ccc2cc(COC(=O)Nc3ccc(C(=O)NO)cc3)ccc2c1 [givinostat]
Summary of the method: as §1

[10] = compound: CCN(CCCOc1ccc2c(Nc3cc(CC(=O)Nc4cccc(F)c4)[nH]n3)ncnc2c1)CCOP(=O)(O)O [barasertib]
Summary of the method: as §1

[11] = compound: CC[C@@H]1C(=O)N(C)c2cnc(Nc3ccc(C(=O)NC4CCN(C)CC4)cc3OC)nc2N1C1CCCC1
Summary of the method: as §1

[12] = compound: CC[C@@H]1C(=O)N(C)c2cnc(Nc3ccc(C(=O)N[C@H]4CC[C@H](N5CCN(CC6CC6)CC5)CC4)cc3OC)nc2N1C(C)C [volasertib]
Summary of the method: as §1

[13] = compound: CC[C@H](C)N1C=C(C2=C(C=C(C=C21)C3=CN=C(C=C3)N4CCNCC4)C(=O)NCC5=C(C=C(NC5=O)C)C)C
Summary of the method: as §1

[14] = compound: CC[C@H](C)[C@@H](C(=O)N[C@@H]([C@@H](C)O)C(=O)N[C@@H](CC(C)C)C(=O)[C@]1(CO1)C)NC(=O)[C@H]([C@@H](C)CC)N(C)C(=O)C [epoxomicin]
Summary of the method: as §1

[15] = compound: CCn1cc(-c2ccnc3[nH]c(-c4cccc(CN(C)C)c4)cc23)c(-c2ccc(NC(=O)N(C)C)cc2)n1
Summary of the method: as §1

[16] = compound: CN(C)CC(=O)Nc1ccc2[nH]c(=O)c3ccccc3c2c1
Summary of the method: as §1

[17] = compound: CN1C2=C(C3=C1C(=O)N(N=C3)CC4=CC(=CC=C4)N)SC(=C2)S(=O)C
Summary of the method: as §1

[18] = compound: CN1CCC(CNc2ccc3ncc(-c4cccc(OC(F)(F)F)c4)n3n2)CC1
Summary of the method: as §1

[19] = compound: CCn1c(C(=O)N(C2CC2)C2CC2)cc2c3c(ncn3C)c(Nc3cc(C)n(C)n3)nc21
Summary of the method: as §1

[20] = compound: CN(CCOC1=CC=C(C=C1)C[C@H]2C(=O)NC(=O)S2)C3=CC=CC=N3 (racemic) [rosiglitazone]
Summary of the method: as §1

Measured: log2 fold change

TMEM177 (UniProt Q53S58)
inactive: [1] 0.043 | [2] 0.045 | [3] -0.008 | [4] 0.048 | [5] -0.092 | [6] 0.05 | [7] 0.05 | [8] -0.038 | [9] 0.005 | [10] -0.019 | [11] -0.092 | [12] 0.051 | [13] 0.047 | [14] -0.052 | [15] 0.048 | [16] 0.219 | [17] -0.103 | [18] -0.075

TMEM141 (UniProt Q96I45)
inactive: [1] 0.011 | [3] 0.001 | [4] 0.088 | [6] -0.037 | [7] 0.017 | [8] -0.028 | [9] -0.011 | [10] 0.088 | [11] 0.001 | [12] 0.077 | [13] -0.017 | [19] -0.006 | [15] -0.166 | [16] 0.031 | [20] -0.038 | [17] 0.092 | [18] -0.195

TMEM106B (UniProt Q9NUM4)
inactive: [1] -0.029 | [3] 0.161 | [4] 0.019 | [5] -0.11 | [6] -0.163 | [7] -0.081 | [8] -0.023 | [9] 0.052 | [10] -0.039 | [11] 0.025 | [12] -0.032 | [13] -0.05 | [14] -0.11 | [15] -0.007 | [16] -0.05 | [17] 0.012 | [18] -0.13

TMC1 (UniProt Q8TDI8)
inactive: [1] 0.146 | [3] 0.032 | [4] 0.048 | [5] -0.192 | [6] -0.014 | [7] -0.054 | [8] -0.514 | [9] -0.049 | [10] 0.076 | [11] 0.345 | [12] 0.046 | [13] -0.32 | [14] -0.311 | [19] 0.006 | [15] 0.1 | [16] -0.011 | [20] 0.233 | [17] -0.103 | [18] 0.019

TMEM167B (UniProt Q9NRX6)
inactive: [1] -0.008 | [2] -0.001 | [3] -0.07 | [4] -0.043 | [6] -0.095 | [7] -0.019 | [8] -0.153 | [9] 0.026 | [10] -0.056 | [11] 0.031 | [12] 0.177 | [13] -0.083 | [19] -0.048 | [15] 0.004 | [16] -0.03 | [20] -0.009 | [17] 0.133 | [18] 0.076

TMED3 (UniProt Q9Y3Q3)
inactive: [1] -0.013 | [3] 0.024 | [4] -0.008 | [5] 0.027 | [6] -0.054 | [7] 0.037 | [8] -0.044 | [9] -0.038 | [10] -0.015 | [11] 0.031 | [12] -0.13 | [13] -0.086 | [14] 0.108 | [19] 0.015 | [15] -0.074 | [16] 0.005 | [20] -0.085 | [17] -0.041 | [18] -0.054

TMEM242 (UniProt Q9NWH2)
inactive: [1] -0.057 | [2] 0 | [3] 0.018 | [5] 0.079 | [6] 0.078 | [7] -0.064 | [8] -0.037 | [9] -0.088 | [10] 0.008 | [11] 0.052 | [12] 0.05 | [13] -0.066 | [14] 0.11 | [19] 0.025 | [15] 0.028 | [16] 0.089 | [20] -0.061 | [17] -0.079 | [18] 0.031

TMBIM1 (UniProt Q969X1)
inactive: [1] 0.113 | [2] -0.055 | [3] 0.09 | [5] -0.02 | [6] -0.132 | [7] 0.185 | [8] -0.134 | [9] 0.004 | [10] -0.057 | [11] 0.086 | [12] 0.002 | [13] -0.014 | [14] -0.033 | [15] 0.044 | [16] 0.029 | [17] -0.035 | [18] -0.03

TMBIM6 isoform 2 (UniProt P55061)
inactive: [1] -0.05 | [2] 0.045 | [3] 0.04 | [4] -0.016 | [5] -0.005 | [6] -0.121 | [7] 0.048 | [8] 0.619 | [9] 0.072 | [10] 0.019 | [11] -0.075 | [12] -0.061 | [13] -0.041 | [14] 0.25 | [16] 0.066 | [17] -0.007

2 consecutive entries from above, quoted:
TMED3 (UniProt Q9Y3Q3)
inactive: [1] -0.013 | [3] 0.024 | [4] -0.008 | [5] 0.027 | [6] -0.054 | [7] 0.037 | [8] -0.044 | [9] -0.038 | [10] -0.015 | [11] 0.031 | [12] -0.13 | [13] -0.086 | [14] 0.108 | [19] 0.015 | [15] -0.074 | [16] 0.005 | [20] -0.085 | [17] -0.041 | [18] -0.054

TMEM242 (UniProt Q9NWH2)
inactive: [1] -0.057 | [2] 0 | [3] 0.018 | [5] 0.079 | [6] 0.078 | [7] -0.064 | [8] -0.037 | [9] -0.088 | [10] 0.008 | [11] 0.052 | [12] 0.05 | [13] -0.066 | [14] 0.11 | [19] 0.025 | [15] 0.028 | [16] 0.089 | [20] -0.061 | [17] -0.079 | [18] 0.031

The list continues.

TNFAIP8 isoform 4 (UniProt O95379)
inactive: [1] -0.019 | [2] -0.013 | [3] -0.021 | [4] 0.051 | [5] -0.102 | [6] 0.014 | [7] -0.102 | [8] -0.052 | [9] 0.003 | [10] 0.065 | [11] -0.015 | [12] -0.414 | [13] 0.053 | [14] 0.041 | [15] -0.088 | [16] 0.022 | [17] -0.084 | [18] -0.125

TMCO3 (UniProt Q6UWJ1)
inactive: [1] 0.014 | [2] 0.026 | [5] 0.054 | [6] 0.16 | [8] 0.254 | [14] 0 | [15] 0.035 | [16] 0.104 | [17] 0.239 | [18] -0.362

TNFRSF10B (UniProt O14763)
inactive: [1] 0.015 | [3] -0.039 | [4] -0.019 | [5] -0.042 | [6] 0.039 | [7] -0.015 | [8] 0.063 | [9] -0.012 | [10] -0.06 | [11] 0.014 | [12] -0.017 | [13] -0.212 | [14] -0.008 | [19] -0.013 | [15] -0.018 | [16] -0.133 | [20] -0.031 | [17] -0.112 | [18] 0.064

TMEM106C (UniProt Q9BVX2)
inactive: [1] -0.076 | [3] -0.052 | [6] -0.121 | [7] 0.013 | [9] 0.275 | [10] 0.101 | [12] -0.05 | [13] 0.149 | [19] 0.17 | [16] -0.189 | [20] 0.071 | [17] 0.084

TMEM41A (UniProt Q96HV5)
inactive: [1] 0.039 | [2] 0.093 | [3] 0.002 | [4] 0.014 | [5] -0.138 | [6] -0.163 | [7] -0.101 | [8] -0.021 | [9] -0.043 | [10] 0.001 | [11] 0.036 | [12] 0.035 | [13] -0.05 | [14] -0.055 | [15] 0.165 | [16] -0.049 | [17] 0 | [18] 0.01

TM7SF2 (UniProt O76062)
inactive: [1] 0.051 | [2] 0.015 | [3] -0.045 | [6] 0.252 | [7] 0.123 | [9] 0.18 | [13] -0.022 | [16] -0.435 | [17] 0.031
active: [12] 0.907

TMEM208 (UniProt Q9BTX3)
inactive: [1] -0.093 | [2] 0.005 | [3] 0.037 | [4] -0.022 | [5] -0.112 | [6] -0.06 | [7] 0.035 | [8] -0.219 | [9] 0.097 | [10] -0.012 | [11] -0.071 | [12] -0.208 | [13] -0.048 | [14] -0.03 | [15] -0.022 | [16] 0.274 | [17] -0.02 | [18] 0.036

TMEM123 (UniProt Q8N131)
inactive: [1] -0.009 | [3] -0.02 | [5] -0.18 | [6] 0.031 | [7] -0.049 | [8] 0.077 | [9] -0.069 | [10] -0.029 | [11] -0.068 | [12] 0.02 | [13] -0.08 | [14] -0.031 | [19] 0.007 | [16] -0.047 | [20] -0.034 | [17] -0.013

TMEM8A (UniProt Q9HCN3)
inactive: [1] 0.101 | [2] 0.017 | [3] -0.047 | [6] -0.003 | [7] -0.073 | [8] -0.077 | [9] 0.014 | [10] -0.189 | [11] -0.11 | [12] 0.008 | [13] -0.108 | [15] -0.037 | [16] -0.031 | [17] 0.082 | [18] -0.104

TMEM268 isoform 3 (UniProt Q5VZI3)
active: [14] 0.536
inactive: [1] 0.056 | [2] 0.024 | [3] -0.178 | [5] 0.124 | [7] 0.083 | [8] 0.18 | [9] 0.11 | [10] -0.461 | [11] -0.088 | [12] -0.005 | [13] 0.112 | [15] 0.013 | [17] 0.025 | [18] -0.123
